Results: PubChem BioAssay AID588463 (National Center for Advancing Translational Sciences (NCATS), 2011)
Out of some 1,200 compounds screened, about 15 (1%) were called active. Another 7% or so got no clear call; they are omitted. The call rests on the fitted dose curve; in most records, active means well fitted activation curve with a large enough effect; inconclusive means small, poorly fitted or top-dose-only effect; inactive means flat fitted curve, though single readings scatter. The list shows a part of the results.

biological target: Beta-2 adrenergic receptor (Homo sapiens) (UniProt P07550); experiment: qHTS assay of beta-arrestin-biased ligands of beta2-adrenergic receptor: Hit Validation; conditions: cell-based beta-arrestin recruitment to beta2AR; Potency: activation; series mostly up to 46.1 µM; activation: at the top concentration;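 further: plate controls were DMSO for no effect and maximal isoproterenol or metaproterenol response for full effect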
Method in brief: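 Luminescent tTA-driven luciferase reporter in Tango cells, read after 18 h at 37 °C with compound and 15 min with substrate mix (0.15 mM ATP, 0.44 mM D-luciferin, final). Concentration-response fits categorized by curve class.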

activation, inactive:
O=c1[nH]c(CSc2cccc[n+]2[O-])nc2ccccc12 -1.21%, O=c1c2cn[nH]c2nc(SCc2ccccc2F)n1-c1ccc(Br)cc1 4.7%, CN1CCN(C(c2cccnc2)c2ccc3cccnc3c2O)CC1 (stereo not given) -0.879%, COc1ccc(C2CC3(CC(C)(C)NC(=S)N3)Oc3cc(O)cc(C)c32)cc1 (stereo not given) 3.78%, C=CCn1c(O)c(N=NC(=S)Nc2ccccc2F)c2cc(S(=O)(=O)N3CCOCC3)ccc21 -3.66%, CC(=O)c1ccc(NC(=O)C(C)OC(=O)C2CC(=O)N(c3ccc4c(c3)OCCO4)C2)cc1 (stereo not given) -3.38%, Cc1ccc(C)c(NC(=S)N=Nc2c(O)n(C)c3ccc(S(=O)(=O)N4CCOCC4)cc23)c1 0.069%, Oc1ccc(NCc2ccc(OCc3ccccc3)cc2)cc1 -0.106%, CCCCNC(=S)N/N=C/c1cccc(OCC)c1O -2.34%, COc1cccc(/C=N/Nc2nc(-c3cccnc3)nc3ccccc23)c1 -1.3%, O=C(Oc1cccc2cccnc12)c1ccc2c(c1)OCCO2 -2.9%, COc1ccccc1NS(=O)(=O)c1ccc(NC(=O)Cc2cccs2)cc1 -1.57%, CN(C(=O)CSc1ccncc1)C1CCCN(Cc2ccccc2F)C1 (stereo not given) -2.18%, Oc1ccc(NCc2cccc(OCc3ccc(F)cc3)c2)cc1 -1.88%, CCN(CC)CCCNC(=O)CCC(=O)NNc1nc2ccccc2c2nc(C)nn12 -1.51%, O=[N+]([O-])c1ccc(OCC(O)CN(C2CCCCC2)C2CCCCC2)cc1 (stereo not given) -0.892%, COc1cnc(-c2ccccn2)nc1Sc1ccccc1Cl -3.15%, O=C(Oc1c(CN2CCOCC2)cc(Cl)c2cccnc12)c1ccccc1Br 7.38%, CC(C)NC(=S)NN=C1CCC(c2ccccc2)CC1 (stereo not given) -1.07%, Cc1ccnc(NC(=O)c2c(-c3ccccc3Cl)noc2C)c1 -2.92%, Cc1nn2c(c1-c1ccccc1)N=C(c1ccco1)CC2c1ccccc1 (stereo not given) 2.5%, CCNc1nc(NC(C)CC)nc(ON=C(C)C)n1 (stereo not given) -1.44%, O=C(CN1CCN(Cc2ccccc2)CC1)c1ccc(Br)cc1 -2.66%, CCNC(=S)N/N=C/c1sccc1C -3.21%, Cc1ccc(NC(=S)NC(NC(=O)c2ccco2)C(Cl)(Cl)Cl)cc1 (stereo not given) 6.67%, CC(=O)Nc1nonc1NC(=O)CSc1nc2ccccc2o1 -7.81%, O=C(CSc1cccc[n+]1[O-])CSc1cccc[n+]1[O-] -4.27%, Cc1cc(C)cc(-n2c3nc4ccccc4nc3c3c(=O)n(Cc4ccco4)cnc32)c1 -1.95%, CCN(CC(=O)Nc1ccccc1SC)Cc1nc2ccccc2c(=O)[nH]1 -4.21%, CCCCc1nc(SCC(=O)N2CCOCC2)c2c(=O)n(C)c(=O)n(C)c2n1 -5.25%, Cc1onc(-c2c(F)cccc2Cl)c1C(=O)N1CCSCC1 -6.47%, CC1=NN(C(N)=S)C(=O)C1N=Nc1cc(Cl)ccc1Cl (stereo not given) -0.245%, Cc1cc(C)nc(-n2nc(C)cc2NC(=O)CN2CCC(C)CC2)n1 -2.72%, CCOc1ccc2c(c1)C(C)=CC(C)(C)N2C(=O)Nc1ccccc1F -1.04%, CN1CCC(=C2c3ccccc3C=Cc3ccccc32)CC1 -2.63%, Cc1oc(-c2ccccc2Cl)nc1CN1CCCCC1c1cccnc1 (stereo not given) -3.35%, COc1ccc(C(=O)NCC(=O)N/N=C/c2ccc([N+](=O)[O-])o2)cc1OC -2.91%, CCOC(=O)c1ccc(NC(=S)NNC(C)(C)C)cc1 -2.78%, CCOc1ccc2nc(N3C(=O)CNC3=S)sc2c1 -3.41%, S=C(N/N=C/c1ccc(Cl)c(Cl)c1)Nc1ccccc1Cl -4.07%, Cc1ccc(OCC(=O)N/N=C/C=C/c2ccco2)c(Br)c1 -1.89%, CCOC(=O)c1cnc(Nc2nc3ccccc3o2)nc1CSC(=S)N(CC)CC -0.875%, COc1ccc(NC(=O)CSc2nc3c(c(=O)n2-c2ccccc2)SCC3)c(OC)c1 -2.06%, Cc1cccc(NC(=O)CSc2cccc3cccnc23)c1C -3.45%, CN(C)c1cccc(C(=O)OCC(=O)Nc2nccs2)c1 -3.62%, COCCNC(=S)N/N=C(\C)c1cccc(C(F)(F)F)c1 -2.84%, Cc1nnc(NC(=O)c2ccc3ccccc3c2)o1 -1.26%, Cc1nc2ccccc2c(=O)n1N -1.37%, CC1=C(C(=O)N2CCOCC2)C(c2ccc(Cl)cc2)NC(=S)N1 (stereo not given) -1.53%, C=CCNC(=S)Nc1cc(C)ccn1 -3.23%, S=C1SCN(Cc2ccco2)CN1Cc1ccco1 -4.11%, O=C(NCCN1CCOCC1)c1cc(Br)ccc1Cl -2.79%, COc1nc(OC)nc(Oc2ccc([N+](=O)[O-])cc2Cl)n1 -3%, Fc1cccc(F)c1/C=N/NC(=S)Nc1cccnc1 0.332%, CNS(=O)(=O)c1cc(NC(=O)c2cnc(SC)n2-c2ccccc2)ccc1C 5.19%, CC1S/C(=N/N=C2CCCCC2)NC1=O (stereo not given) -1.28%, COc1ccccc1/C(C)=N/NC(=S)NCc1ccccc1 -1.72%, COc1cc(OC)c(NS(=O)(=O)c2cc(C(=O)OC(C)C(=O)NC3CC3)c(Cl)cc2Cl)cc1Cl (stereo not given) -0.815%, COCCNC(=S)N/N=C(\C)c1ccc(Cl)s1 -2.92%, CCOC(=O)c1ccccc1NC1c2ccccc2C(=O)N1C1CCN(C(=O)OCC)CC1 (stereo not given) 2.96%, O=C(O)/C=C/c1nc(-c2ccccc2)n2ccccc12 -2.97%, Cc1cc(NC(=O)CSc2nnnn2-c2ccccc2C)no1 -3.25%, C=CCNC(=S)NNC(=O)COc1ccc(Cl)cc1Cl -4.69%, S=C(NCc1ccccn1)Nc1ccc(Cl)c(Cl)c1 -3.46%, COc1ccc(CCN(C)CCCC(C#N)(c2cc(OC)c(OC)c(OC)c2)C(C)C)cc1OC (stereo not given) 7.14%, Cc1ccc(CONC(=O)c2ccccc2Cl)cc1 -3.35%, CN(C)c1ccc(NC(=O)Oc2ccccc2)cc1 -1.95%, Cc1ccc2nc(NC(=O)COC(=O)c3ccc(Br)o3)sc2c1 -1.88%, CCCCOc1ccc(NC(=O)CSc2cccc3cccnc23)cc1 -0.82%, COC(=O)c1scc(C)c1S(=O)(=O)Nc1ccc(C)cc1 -3.22%, C=CCOc1ccc2ccccc2c1CNn1c(C)n[nH]c1=S -2.87%, CC1CCCCN1C(=S)NC(=O)c1cccs1 (stereo not given) -1.73%, CS/C(N)=N/N=C/c1cc(Br)cc(Br)c1O -2.45%, S=C(NCc1ccccc1)Nc1ccc2ccccc2c1 -2.09%, Cc1ccc(CNc2ccc(N3C(=O)CCCC3=O)cc2[N+](=O)[O-])cc1 -3.89%, CCOC(=O)c1sc(NC(=O)CSc2nnc(C(C)C)n2C)nc1C -3.85%, CC(=Nc1ccccc1O)c1sc2ccccc2c1O -3.52%, Cc1ccc2c(c1)C1CN(C)CCC1N2C(=O)c1ccccc1NS(=O)(=O)c1ccc(F)cc1C (stereo not given) -2.77%, COc1ccc(C[C@@H]2CN3C(=NC[C@@H]3Cc3ccc(O)cc3)N2C[C@H](C)NC(=O)CCC2CCCCC2)cc1 1.59%, CC1=NN(C(N)=S)C(=O)C1N=Nc1c(C)cc(C)cc1C (stereo not given) -2.37%, C=C(C)CNC(=S)NNC(=O)c1ccco1 -0.272%, CCn1c(SCC(=O)c2ccc(F)cc2)nnc1-c1ccoc1C -2.69%, COC(=O)N1C(=O)[C@@](c2ccccc2)(C2CCCCC2)N1C(=O)OC -0.705%, C/C(=N\NC(=O)c1ccccc1[N+](=O)[O-])c1c(O)cc(C)oc1=O -2.83%, Cc1ccc([N+](=O)[O-])cc1N=Nc1c(-c2ccc([N+](=O)[O-])cc2)[nH]n(C(N)=S)c1=O -2.19%, CC(/C=C/c1ccccc1)=N\NC(N)=S -0.909%, CNc1nc(-c2ccc3c(c2)CCN3C(=O)c2cccc(F)c2)cs1 -3.05%, C=CCn1c(-c2ccccc2)c[nH]c1=S -5.21%, CCOC(=O)C1=CN(Cc2cccc(-c3cccnc3)c2)S(=O)(=O)N(CC)C1C (stereo not given) -2.1%, CC(C)(C)NC(=S)NCc1ccc2c(c1)OCO2 -2.18%, C=CCNC(=S)N/N=C/c1cn(C)c2ccccc12 -0.545%, COc1ccccc1N1CCN(C(=O)c2cc3ccccc3[nH]2)CC1 -2.66%, O=C(O)CC1S/C(=N/N=C2CCCCC2)N(c2ccccc2)C1=O (stereo not given) -2.11%, N#CC1=C(N)SC(C(=O)c2ccccc2)C1c1cccs1 (stereo not given) -2.87%, CCCOc1ccc(C(=O)Nc2nc(C)c(Cc3ccc4c(c3)OCO4)s2)cc1 -4.09%, COc1ccc(CNc2nc(SCC(=O)NCc3ccco3)nc3ccccc23)cc1 -0.667%, CCOCCCNC(C(=O)Nc1ccc(OC)c(Cl)c1)c1ccccc1 (stereo not given) -3.37%, COC(=O)CSc1ccc2nnc(-c3ccc(OC)c(OC)c3)n2n1 -2.65%, CCOc1cc(/C=N\Nc2nc(-c3ccc(C)cc3)c(NC(C)=O)s2)ccc1O -4.03%, COCC(=O)Nc1cc(C(=O)NCCc2ccccc2)ccc1Cl -3.24%, OCc1ccnc2c(O)cccc12 -1.34%, CN(C)S(=O)(=O)c1cccc(NC(=S)N/N=C/c2ccco2)c1 2.56%, Cc1ccc2nc(Cl)c(C3CC(c4cccs4)=NN3C(=O)CCCC(=O)O)cc2c1 (stereo not given) -2.53%, Cc1cc(N2CCCC2)ccc1/C=C1\NC(=S)N(C)C1=O 0.246%, C/C(=N\NC(=O)c1ccco1)c1ccc(NC(=O)C(F)(F)F)cc1 -3.65%, CNC(=S)N/N=C(\C)c1ccccc1 -1.21%, O=C1CCCC(=O)N1c1ccc(N2CCN(c3ccccc3)CC2)c([N+](=O)[O-])c1 -2.26%, CCOc1ccc(NC(=S)NC(=O)C2CCCC2)cc1 -2.21%, COc1ccc2c(c1)c(=O)c(C(=O)c1ccccc1)cn2Cc1ccccc1 -1.85%, COc1ccc(C)cc1-n1nnnc1SCC(=O)N1CCC(C(=O)Nc2nccs2)CC1 -3.38%, Cc1ccc(C(C[N+](=O)[O-])Sc2ccc(N)cc2)cc1 (stereo not given) -3.27%, COc1ccc(/C=N/Nc2nnc(Cc3ccc(OC)c(OC)c3)c(=O)[nH]2)cc1 -2.15%, CC1=C/C(=N\NC(=S)NCc2ccccc2)CC1 -4.13%, O=C(NC(=S)N1CCCCCC1)c1ccccc1Cl -2.85%, NC(=S)N=Nc1c(O)n(CCCl)c2ccc(Cl)cc12 -3.45%
